Laboratory results as given in patent US12503455B2, “Nucleic acid-binding photoprobes and uses thereof” (Arrakis Therapeutics, Inc., priority 2017, dated 2025).
Where “and” joins values, the source holds several entries; their conditions need not be identical. Identical values can stand only once.

System: Aptamer 21
Test: Next generation sequencing of ARK-547 cross-linked Aptamer 21 (RT pausing, mutation rate)
Type: binding
Experimental: A 9.5 μL sample of folded RNA (2.6 μM) in buffer (20 mM TrisHCl pH 8, 100 mM KCl, 3 mM MgCl2) was added to a 0.5 μL aliquot of 1 mM ARK-547 in DMSO. The reaction was incubated for 10 min at 37° C., irradiated with long wave UV light (˜365 nm) for 30 min in a UV crosslinker (Fisher Scientific), and then kept on ice.
The samples of cross-linked RNA were diluted to a final volume of 20 μL and final reaction conditions of 1×T4 RNA ligase buffer (New England Biolabs), 5 U/μL T4 RNA ligase 2, truncated KQ (New England Biolabs), 16.5% PEG-8000, and 0.5 μM universal miRNA cloning linker (New England Biolabs). The reaction was incubated in a thermal cycler for 2.5 h cycling between 5 min at 16° C. and 3 min at 25° C. The RNA was then purified using Agencourt AMPure XP beads (Beckman Coulter) using the standard protocol from the manufacturer. The RNA was eluted with 20 μL of nuclease-free water.
A 10 μL aliquot of the eluted RNA sample was mixed with a 1 μL aliquot of 2 μM PEARLv2_RT primer, heated to 65° C. for 5 min, and then cooled on ice. […]
To remove excess primer, the sample was mixed with 4.5 μL of ExoSAP-IT, incubated at 37° C. for 15 min, and then quenched with 1 μL of 0.5 M EDTA pH 8. […] The concentration was determined by absorbance at 260 nm. […]
The concentrations of different PCR products were measured using the Denovix dsDNA fluorescence quantitation kit (Denovix) and multiplexed at equal concentrations with a 20% PhiX spike-in. Sequencing was performed on an Illumina MiSeq with 150 bp paired-end reads using the standard manufacturer protocol.
Sites of interaction between probe and transcripts were defined by reverse transcriptase (RT) stalling sites. RT stalling sites were defined based upon the mapped position of the 5′ end of a trimmed read. For short defined transcripts such as Aptamer 21, high-confidence RT stall sites were defined from reads with 3′ ends mapping to the precise transcript end. […]

COC(=O)C1=C(COCc2cn(CCOCCOCCNC(=O)CCC3(C)N=N3)nn2)NC(c2ccncc2)=NC1c1ccc(F)cc1Cl (stereo not drawn) [ARK-547]
position of maximal reverse transcriptase (RT) pausing: 59 nt | MaP signal positions in sequencing of cross-linked Aptamer 21 (nucleotide position): 43 and 60 | selective drop-off position in sequencing of cross-linked Aptamer 21 (nucleotide position): 60
